PubChem BioAssay AID1508597 | Cure First – 2020
Test: 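Genes whose silencing sensitises or protects ovarian cancer cells against rucaparib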 (primary screen). Cell system: human ovarian carcinoma lines grown from tumours: OCI-P5x (papillary serous) and OCI-C5x (clear cell). Knock-down reagent: siRNA pool against human genes, 1.25 pmol siRNA per well. Duration: 72 h or 96 h, depending on the cell culture. Challenge: rucaparib 20 µM (about IC30) or vehicle, present until read-out. Detection: 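ATP luminescence measured at 72 or 96 h according to the culture, then normalised and expressed as percent viability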. Scale: viability, normalised: higher = more viable cells remaining. Hit rule: 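a well counts as a hit if its normalised viability is under 80 percent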. Meaning of the calls: active = viability under 80%; inactive = viability 80% or more.
The deposit covers about 2,100 reagents; below is an unselected part. 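Calls flag viability under 80% in either arm, not effects specific to rucaparib; the reference for percent is not stated.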 Unmarked entries are inactive. A reagent listed more than once was tested more than once; the source does not tell the runs apart. Not given: the 100% reference.

For HMGA2, rucaparib or vehicle Rucaparib, cell line OCI-C5x (clear cell), technical replicate 1, what does the deposit list?
viability, normalised (%): 54.4 (active)

Which result is listed for HMGA2, rucaparib or vehicle Rucaparib, cell line OCI-C5x (clear cell), technical replicate 2?
viability, normalised (%): 37.3 (active)

With HMGA2, rucaparib or vehicle Rucaparib, cell line OCI-C5x (clear cell), technical replicate 3, what was measured?
viability, normalised (%): 39.8 (active)

What is on record for HMGA2, rucaparib or vehicle Rucaparib, cell line OCI-P5x (serous), technical replicate 1?
viability, normalised (%): 51.1 (active)

What did the screen give for HMGA2, rucaparib or vehicle Rucaparib, cell line OCI-P5x (serous), technical replicate 2?
viability, normalised (%): 61 (active)

For HMGA2, rucaparib or vehicle Rucaparib, cell line OCI-P5x (serous), technical replicate 3, how do the results read?
viability, normalised (%): 52.3 (active)

What is on record for HMGA2, rucaparib or vehicle Vehicle, cell line OCI-C5x (clear cell), technical replicate 1?
viability, normalised (%): 18.5 (active)

For HMGA2, rucaparib or vehicle Vehicle, cell line OCI-C5x (clear cell), technical replicate 2, what was measured?
viability, normalised (%): 34.8 (active)

For HMGA2, rucaparib or vehicle Vehicle, cell line OCI-C5x (clear cell), technical replicate 3, how do the results read?
viability, normalised (%): 35.1 (active)

For HMGA2, rucaparib or vehicle Vehicle, cell line OCI-P5x (serous), technical replicate 1, what was measured?
viability, normalised (%): 48.5 (active)

What did the screen give for HMGA2, rucaparib or vehicle Vehicle, cell line OCI-P5x (serous), technical replicate 2?
viability, normalised (%): 68.2 (active)

With HMGA2, rucaparib or vehicle Vehicle, cell line OCI-P5x (serous), technical replicate 3, how do the results read?
viability, normalised (%): 86.5

For PAK6, rucaparib or vehicle Rucaparib, cell line OCI-C5x (clear cell), technical replicate 1, what was measured?
viability, normalised (%): 66.6 (active)

With PAK6, rucaparib or vehicle Rucaparib, cell line OCI-C5x (clear cell), technical replicate 1, what was measured?
viability, normalised (%): 59.6 (active)

For PAK6, rucaparib or vehicle Rucaparib, cell line OCI-C5x (clear cell), technical replicate 2, how do the results read?
viability, normalised (%): 54.7 (active)

With PAK6, rucaparib or vehicle Rucaparib, cell line OCI-C5x (clear cell), technical replicate 2, what does the deposit list?
viability, normalised (%): 57 (active)

What did the screen give for PAK6, rucaparib or vehicle Rucaparib, cell line OCI-C5x (clear cell), technical replicate 3?
viability, normalised (%): 49 (active)

With PAK6, rucaparib or vehicle Rucaparib, cell line OCI-C5x (clear cell), technical replicate 3, what was measured?
viability, normalised (%): 52.1 (active)

Which result is listed for PAK6, rucaparib or vehicle Rucaparib, cell line OCI-P5x (serous), technical replicate 1?
viability, normalised (%): 89.3

What is on record for PAK6, rucaparib or vehicle Rucaparib, cell line OCI-P5x (serous), technical replicate 1?
viability, normalised (%): 100

What did the screen give for PAK6, rucaparib or vehicle Rucaparib, cell line OCI-P5x (serous), technical replicate 2?
viability, normalised (%): 87.7

For PAK6, rucaparib or vehicle Rucaparib, cell line OCI-P5x (serous), technical replicate 2, how do the results read?
viability, normalised (%): 94.2

For PAK6, rucaparib or vehicle Rucaparib, cell line OCI-P5x (serous), technical replicate 3, what does the deposit list?
viability, normalised (%): 99.1

With PAK6, rucaparib or vehicle Rucaparib, cell line OCI-P5x (serous), technical replicate 3, how do the results read?
viability, normalised (%): 89.6

How did the screen score PAK6, rucaparib or vehicle Vehicle, cell line OCI-C5x (clear cell), technical replicate 1?
viability, normalised (%): 74.2 (active)

With PAK6, rucaparib or vehicle Vehicle, cell line OCI-C5x (clear cell), technical replicate 1, what was measured?
viability, normalised (%): 62.6 (active)

With PAK6, rucaparib or vehicle Vehicle, cell line OCI-C5x (clear cell), technical replicate 2, how do the results read?
viability, normalised (%): 66.4 (active)

What is on record for PAK6, rucaparib or vehicle Vehicle, cell line OCI-C5x (clear cell), technical replicate 2?
viability, normalised (%): 60.3 (active)

With PAK6, rucaparib or vehicle Vehicle, cell line OCI-C5x (clear cell), technical replicate 3, what does the deposit list?
viability, normalised (%): 49.1 (active)

Which result is listed for PAK6, rucaparib or vehicle Vehicle, cell line OCI-C5x (clear cell), technical replicate 3?
viability, normalised (%): 50.2 (active)

Which result is listed for PAK6, rucaparib or vehicle Vehicle, cell line OCI-P5x (serous), technical replicate 1?
viability, normalised (%): 63.4 (active)

For PAK6, rucaparib or vehicle Vehicle, cell line OCI-P5x (serous), technical replicate 1, what does the deposit list?
viability, normalised (%): 87.7

What did the screen give for PAK6, rucaparib or vehicle Vehicle, cell line OCI-P5x (serous), technical replicate 2?
viability, normalised (%): 70.8 (active)

How did the screen score PAK6, rucaparib or vehicle Vehicle, cell line OCI-P5x (serous), technical replicate 2?
viability, normalised (%): 83.7

What is on record for PAK6, rucaparib or vehicle Vehicle, cell line OCI-P5x (serous), technical replicate 3?
viability, normalised (%): 86.4

For PAK6, rucaparib or vehicle Vehicle, cell line OCI-P5x (serous), technical replicate 3, how do the results read?
viability, normalised (%): 93.3
